Laboratory results as given in patent publication US20240058365A1, “External Preparation for Treating Epilepsy or Autism Spectrum Disorder” (OSAKA UNIVERSITY, priority 2019, published 2024).

Experiment: Solubility of sirolimus in diethylene glycol monoethyl ether
Format: physicochemical
Conditions: can be dissolved at up to
Excerpt: Sirolimus or the sirolimus derivative is soluble in the diethylene glycol ether. Sirolimus dissolves well in the diethylene glycol monoethyl ether, and can be dissolved therein at up to 2.02 W/V %.

CO[C@H]1C[C@@H]2CC[C@@H](C)[C@@](O)(O2)C(=O)C(=O)N2CCCC[C@H]2C(=O)O[C@H]([C@H](C)C[C@@H]2CC[C@@H](O)[C@H](OC)C2)CC(=O)[C@H](C)/C=C(\C)[C@@H](O)[C@@H](OC)C(=O)[C@H](C)C[C@H](C)/C=C/C=C/C=C/1C [Sirolimus, sirolimus]
solubility in diethylene glycol monoethyl ether: up to 2.02 W/V %
